These are yes or no findings as the source states them, for the method shown. Binding seen in cells or lysates may run through a third protein. Binding calls can cover weak binding; strength is not graded here. Tags and fused reporters may be left off the sequences shown.
Key:
[1] = target: T1, expanded human PABPN1, tract of 17 alanine residues, His-tagged, biotinylated (human) (UniProt Q86U42); experiment: pull-down; biotinylated His-PABPN1 (2 µg) on streptavidin-agarose beads, incubated with RNase A-treated extracts of C2 myoblasts and myotubes, 4 h at 4°C, 20 mM Tris pH 8.0, 200 mM KCl, 10% glycerol; bound proteins detected by immunoblot; only the target purified
T1 sequence (chain, biotin (EZ-Link PEO-Maleimide Activated Biotin)): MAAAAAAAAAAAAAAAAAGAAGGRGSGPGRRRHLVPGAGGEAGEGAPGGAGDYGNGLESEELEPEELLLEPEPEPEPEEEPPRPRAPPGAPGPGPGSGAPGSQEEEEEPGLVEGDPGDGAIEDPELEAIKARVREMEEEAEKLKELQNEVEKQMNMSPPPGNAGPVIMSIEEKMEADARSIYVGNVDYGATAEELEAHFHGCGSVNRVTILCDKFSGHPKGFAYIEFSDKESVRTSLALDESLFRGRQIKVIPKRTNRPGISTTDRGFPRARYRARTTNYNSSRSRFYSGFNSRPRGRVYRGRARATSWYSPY

[2] = target: T2, normal human PABPN1 (poly(A)-binding protein nuclear 1), homopolymer of 10 alanine residues, His-tagged, biotinylated (human) (UniProt Q86U42); experiment: as above
T2 sequence (chain, biotin (EZ-Link PEO-Maleimide Activated Biotin)): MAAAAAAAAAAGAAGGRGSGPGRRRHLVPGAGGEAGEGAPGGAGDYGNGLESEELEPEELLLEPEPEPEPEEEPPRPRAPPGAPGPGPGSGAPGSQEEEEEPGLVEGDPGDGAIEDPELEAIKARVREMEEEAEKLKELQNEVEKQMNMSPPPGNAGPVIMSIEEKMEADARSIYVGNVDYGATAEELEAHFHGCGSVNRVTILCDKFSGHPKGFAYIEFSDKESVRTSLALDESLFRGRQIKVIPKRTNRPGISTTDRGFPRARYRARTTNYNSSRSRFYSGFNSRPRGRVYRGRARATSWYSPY

- binding [1]: binds
- binding [2]: binds
Substance: Hsp70 (as detected by anti-Hsp70 immunoblot) (mouse (endogenous in C2 cells))

Source: PMC2712759, “Hsp70 Chaperones and Type I PRMTs Are Sequestered at Intranuclear Inclusions Caused by Polyalanine Expansions in PABPN1” (PLoS ONE, 2009)
